Measurements as given in doi:10.1101/2021.04.14.439766.
No constants are given. Whether binding was seen depends on the method and setting. Binding seen in cells or lysates may run through a third protein. Here binding means that the protein was enriched with, or labelled near, the bait; the list need not be complete.

Amino acid sequences for entries named in this document (tags omitted).
UniProt P68104: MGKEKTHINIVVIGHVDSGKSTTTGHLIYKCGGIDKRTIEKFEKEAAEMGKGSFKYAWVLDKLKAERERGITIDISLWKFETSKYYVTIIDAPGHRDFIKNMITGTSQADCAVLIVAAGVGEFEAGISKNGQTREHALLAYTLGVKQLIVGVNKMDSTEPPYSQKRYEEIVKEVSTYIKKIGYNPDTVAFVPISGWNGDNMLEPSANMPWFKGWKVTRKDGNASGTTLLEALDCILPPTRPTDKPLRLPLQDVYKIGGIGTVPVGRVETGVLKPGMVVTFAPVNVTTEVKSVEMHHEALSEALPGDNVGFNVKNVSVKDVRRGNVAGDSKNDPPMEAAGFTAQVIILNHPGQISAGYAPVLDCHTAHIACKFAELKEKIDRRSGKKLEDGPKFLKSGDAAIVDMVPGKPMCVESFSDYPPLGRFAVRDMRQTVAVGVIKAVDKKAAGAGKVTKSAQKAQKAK

Target: T1, DEP domain-containing 1 (DEPDC1) (human (endogenous in osteosarcoma cells)) (UniProt Q5TB30)
T1 sequence: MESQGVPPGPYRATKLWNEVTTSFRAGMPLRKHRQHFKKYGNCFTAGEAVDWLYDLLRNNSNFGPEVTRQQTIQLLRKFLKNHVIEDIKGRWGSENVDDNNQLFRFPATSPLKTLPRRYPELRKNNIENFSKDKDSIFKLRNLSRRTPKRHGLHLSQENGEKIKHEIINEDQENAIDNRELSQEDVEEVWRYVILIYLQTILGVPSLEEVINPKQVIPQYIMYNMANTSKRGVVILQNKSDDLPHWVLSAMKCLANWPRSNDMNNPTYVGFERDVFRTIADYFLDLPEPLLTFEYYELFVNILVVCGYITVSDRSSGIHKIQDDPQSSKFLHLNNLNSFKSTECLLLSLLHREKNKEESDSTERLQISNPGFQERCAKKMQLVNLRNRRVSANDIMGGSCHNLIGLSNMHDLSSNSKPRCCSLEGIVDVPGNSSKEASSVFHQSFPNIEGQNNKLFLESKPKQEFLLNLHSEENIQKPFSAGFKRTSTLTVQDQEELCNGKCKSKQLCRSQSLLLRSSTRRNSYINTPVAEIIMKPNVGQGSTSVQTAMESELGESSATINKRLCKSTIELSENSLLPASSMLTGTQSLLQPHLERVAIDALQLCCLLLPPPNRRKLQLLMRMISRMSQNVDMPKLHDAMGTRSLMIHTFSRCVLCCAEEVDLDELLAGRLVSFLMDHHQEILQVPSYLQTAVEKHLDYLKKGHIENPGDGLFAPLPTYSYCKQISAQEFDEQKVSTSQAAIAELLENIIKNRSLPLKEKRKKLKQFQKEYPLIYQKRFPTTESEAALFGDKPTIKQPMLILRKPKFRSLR
Experiment: affinity purification with mass spectrometry

binding: binds
Substance: Elongation Factor 1-alpha 1 (EEF1A1) (from UniProt P68104 1-462)
